For 1 substance, binding results are on record in article PMC10338493.

By UniProt entry, the sequences of proteins in these tests, tags left out. Residues count along the entry.
UniProt P26618, residues 25-1089: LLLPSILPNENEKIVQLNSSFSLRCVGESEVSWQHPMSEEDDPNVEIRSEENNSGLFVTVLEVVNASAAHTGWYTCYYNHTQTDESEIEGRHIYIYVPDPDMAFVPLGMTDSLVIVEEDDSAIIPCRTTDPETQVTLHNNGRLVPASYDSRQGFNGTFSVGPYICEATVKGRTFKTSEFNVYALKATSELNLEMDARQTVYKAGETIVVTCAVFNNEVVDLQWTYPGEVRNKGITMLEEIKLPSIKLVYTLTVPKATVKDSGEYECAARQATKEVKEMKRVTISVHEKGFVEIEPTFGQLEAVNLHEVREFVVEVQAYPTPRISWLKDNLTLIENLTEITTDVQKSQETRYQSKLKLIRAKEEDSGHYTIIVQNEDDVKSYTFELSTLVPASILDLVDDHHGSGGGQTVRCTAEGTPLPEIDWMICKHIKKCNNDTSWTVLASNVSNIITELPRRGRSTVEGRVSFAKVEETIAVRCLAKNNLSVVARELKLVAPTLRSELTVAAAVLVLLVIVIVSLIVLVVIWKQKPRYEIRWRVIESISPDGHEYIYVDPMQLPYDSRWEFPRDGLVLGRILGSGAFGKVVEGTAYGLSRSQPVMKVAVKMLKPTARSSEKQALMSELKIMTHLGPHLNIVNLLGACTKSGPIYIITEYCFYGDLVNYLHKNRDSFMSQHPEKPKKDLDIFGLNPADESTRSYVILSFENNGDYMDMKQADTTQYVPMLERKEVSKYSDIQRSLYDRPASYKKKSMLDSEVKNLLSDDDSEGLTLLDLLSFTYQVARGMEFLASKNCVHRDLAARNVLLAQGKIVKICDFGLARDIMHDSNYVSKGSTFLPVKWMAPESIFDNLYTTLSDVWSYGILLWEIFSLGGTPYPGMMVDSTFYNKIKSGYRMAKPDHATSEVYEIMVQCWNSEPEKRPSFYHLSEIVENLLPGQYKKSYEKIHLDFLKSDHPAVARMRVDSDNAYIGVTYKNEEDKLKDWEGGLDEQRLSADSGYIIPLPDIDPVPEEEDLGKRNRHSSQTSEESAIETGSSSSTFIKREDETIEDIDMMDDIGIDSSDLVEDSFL
UniProt P01127, residues 82-190: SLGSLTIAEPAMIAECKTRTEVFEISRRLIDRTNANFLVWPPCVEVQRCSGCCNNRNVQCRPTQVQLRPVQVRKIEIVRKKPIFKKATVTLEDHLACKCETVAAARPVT

The assay deals with PDGF receptor Pdgfra on NIH 3T3 cells (mouse (endogenous in NIH 3T3)) (UniProt P26618). In words: cross-linking + affinity purification with mass spectrometry; Photo-IGC: purified ligand coupled to probe 1 (NHS ester), incubated with living cells in PBS at 4 °C for 10 min, 5 min UV (365 nm), streptavidin enrichment, LC-MS/MS, label-free comparison with a control (glycine, Tris, BSA or another ligand); only the binder purified.

These are yes or no findings as the source states them, for the method shown. In cells and extracts the contact can be indirect. These calls come from enrichment with a bait or labelling near it, and not all partners need be listed.

On to “platelet-derived growth factor B (PDGF-B) (from UniProt P01127 82-190) (ligand)”, for which the binding result is reported as “binds”.
